# Among all 360,000 compounds or so, about 7,500 (2.1%) were called active. The inconclusive results got no clear call from the source; some entries with a clear call stand among them for comparison. Calls come from the whole dose curve; as a rule, active = well fitted inhibition curve with a large enough effect; inconclusive = small, poorly fitted or top-dose-only effect, or effect the other way; inactive = flat fitted curve, though single readings scatter. Where the call is inconclusive, the potency comes from a doubtful curve fit.
# Assay: Nrf2 qHTS screen for inhibitors; note: nearly all actives have a fitted effect of over 60% in size
# Settings: A549 ARE-Fluc reporter, luciferase luminescence, 18-24 h; series mostly up to 46 µM
# How it was run: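 Reporter: ARE-Fluc in A549. Exposure: 18-24 h, 37 °C, 5% CO2, 5% FBS OPTI-MEM. Readouts: fluorescent cytotoxicity (CellTiter-Fluor), then luminescent Nrf2 signal after BugLite.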
# Potency is the fitted concentration of half-maximal effect.
row,Compound,Potency
1,CN(Cc1ccccc1)C(=O)c1cccc(NC(=O)Cc2ccc(NC(=O)C3CCN(C(=O)CCc4ccccc4)CC3)cc2)c1,active: 16.4 µM
2,COc1ccccc1C(=O)NCC(=O)NCCC(c1ccccc1)c1ccccc1,"inconclusive: 32.6 µM [falling, single point]"
3,CCCCN(CCCC)S(=O)(=O)c1ccc(N2CCCC2=O)c([N+](=O)[O-])c1,inactive
4,C=CS(=O)(=O)N(Cc1ccccc1)[C@H](CO)CC(C)C,inactive
5,Cc1cccc2cc(/C=N/NC(=O)c3ccccc3O)c(Cl)nc12,"inconclusive: 23.1 µM [falling, single point]"
6,COc1ccc(OC)c(CCNC(=O)c2ccc3c(=O)[nH]c4c(C(=O)NC(C)C)sc(=S)n4c3c2)c1,inactive
7,O=C(CSc1nc(C2CC2)nc2ccccc12)N1c2ccccc2Sc2ccc(C(F)(F)F)cc21,"inconclusive: 8.2 µM [falling, partial curve, poor fit]"
8,CC(C)C[C@H](NC(=O)c1[nH]cnc1C(=O)N[C@@H](C)C(=O)OC(C)(C)C)C(=O)OCc1ccccc1,"inconclusive: 29.1 µM [falling, single point]"
9,COc1ccc(CN(C)C(=O)c2cccc(S(=O)(=O)N3CCN(c4ccccc4)CC3)c2)c(OC)c1OC,active: 10.3 µM
10,Cn1c2c(c(=O)n(C)c1=O)C(C(F)(F)F)(C(F)(F)F)N=C(c1ccccc1Cl)N2,inactive
11,Cc1ccc(CN(C)C(=O)c2cc(COc3cccc(C(F)(F)F)c3)on2)o1,inactive
12,CCCOc1ccc(Cn2c(=O)oc3ccc(C)cc32)cc1OC,"inconclusive: 29.1 µM [falling, single point]"
13,CC(C)(C)c1ccc(OCC(O)CN(CCO)CC(O)Cn2ccc3ccccc32)cc1 (stereo unspecified),inactive
14,CCOC(=O)c1ccccc1OCc1cc(/C=N/n2cncn2)ccc1OC,"inconclusive: 16.4 µM [falling, single point]"
15,O=C(Nc1cccc(Oc2ccc3c(c2)C(=O)NC3=O)c1)c1ccco1,"inconclusive: 16.4 µM [falling, partial curve, poor fit]"
16,CC[C@]12c3[nH]c4cc(CCC(=O)N(C)C)ccc4c3CCN1C(=O)[C@@H](CC(=O)NCCc1ccccn1)C[C@@H]2C(=O)N1CCN(C(=O)c2ccco2)CC1,"inconclusive: 25.9 µM [activator, partial curve]"
17,Cc1nn(-c2ccccc2)c(C)c1/C=N/NC(=O)c1cc(C23CC4CC(CC(C4)C2)C3)[nH]n1,active: 13 µM
18,COc1cccc(C2C3=C(CC(C)(C)CC3=O)Nc3cc4c(cc32)OCO4)c1 (stereo unspecified),"inconclusive: 32.6 µM [falling, single point]"
19,COc1ccc(CCNC(=O)c2ccc3c(c2)N(Cc2ccccc2F)C(=O)c2ccccc2S3(=O)=O)cc1OC,"inconclusive: 4.61 µM [activator, partial curve, poor fit]"
20,CCOc1ccc(CSC2=NCCN2)cc1[N+](=O)[O-],"inconclusive: 18.4 µM [activator, single point]"
21,CC1(C)CCCN(Cc2c(O)ccc3c(=O)c(-c4nc5ccccc5s4)c(N)oc23)C1,"inconclusive: 29.1 µM [falling, single point]"

# As entered above:
# CCOc1ccc(CSC2=NCCN2)cc1[N+](=O)[O-] – Potency: inconclusive: 18.4 µM [activator, single point]
# CCCOc1ccc(Cn2c(=O)oc3ccc(C)cc32)cc1OC – Potency: inconclusive: 29.1 µM [falling, single point]

# The listing continues:

row,Compound,Potency
1,CC(C)OC(=O)c1cccc(NC(=O)c2ccccc2)c1,"inconclusive: 18.4 µM [falling, single point]"
2,CC(=O)Nc1ccc(C=NNc2nnc(NN=Cc3ccc(NC(C)=O)cc3)c3ccccc23)cc1,active: 18.4 µM
3,CCOC(=O)c1cnc2c(ccc3ccccc32)c1Nc1cccc(OC)c1,inactive
4,Cc1ccc(CN(Cc2ccco2)C(=O)COc2cc(C)c(Cl)c(C)c2)cc1,"inconclusive: 14.6 µM [falling, partial curve]"
5,CN(C)c1ccc(N=Nc2ccccc2C(=O)OCC(=O)N2CCCCCC2)cc1,"inconclusive: 23.1 µM [activator, partial curve, poor fit]"
6,Cc1cc(OC(C)C(=O)N2CCN(c3ccccc3)CC2)c2c(C)c(C)c(=O)oc2c1 (stereo unspecified),inactive
7,CC(C)Cn1c(N)c(C(=O)COC(=O)c2cc(-c3ccco3)nc3ccccc23)c(=O)n(C)c1=O,"inconclusive: 16.4 µM [falling, single point]"
8,CC#CC[N+](C)(C)CCCCCCCCCC,"inconclusive: 23.1 µM [falling, single point]"
9,COc1ccccc1N(C)S(=O)(=O)c1ccc(C(=O)Nc2cc(F)ccc2C)cc1,"inconclusive: 18.4 µM [falling, partial curve, poor fit]"
10,Cc1nn(-c2ccccc2)c2nc(C3CC3)cc(C(=O)Nc3ccccc3F)c12,inactive
11,COc1ccc(S(=O)(=O)N2CCC(Oc3ccc(-n4cnnn4)cc3)CC2)cc1OC,"inconclusive: 18.4 µM [falling, partial curve, poor fit]"
12,CSc1ncccc1C(=O)Nc1cccc(S(=O)(=O)N(C)c2ccccc2)c1,active: 11.6 µM
13,COC(=O)c1ccc(OC)cc1OCC(=O)N1CCN(c2ccc(F)cc2)CC1,"inconclusive: 23.1 µM [falling, single point]"
14,O=C(CN1CCN(C(=O)c2ccc(-c3nc4ccccc4s3)o2)CC1)Nc1ccc(F)cc1,"inconclusive: 29.1 µM [falling, single point]"
15,Oc1c(-c2cc(-c3ccco3)[nH]n2)ccc2ccccc12,"inconclusive: 18.4 µM [activator, single point]"
16,CCN(CC)c1nc2c(c(=O)n(C)c(=O)n2C)n1CCCc1ccccc1,"inconclusive: 32.6 µM [falling, single point]"
17,C[C@@H](NC(=O)c1[nH]cnc1C(=O)Nc1cccc(Cl)c1)c1ccccc1,"inconclusive: 16.4 µM [falling, single point]"
18,COCCn1c(SCc2csc(-c3ccccc3)n2)nc2ccccc21,active: 20.6 µM
19,Cc1ccc(S(=O)(=O)N2CCC(n3nnc4cc(C)ccc43)CC2)cc1,"inconclusive: 2.31 µM [falling, partial curve]"
20,Nc1cc(=O)[nH]c(SCC(=O)NC2CCCCCCC2)n1,"inconclusive: 32.6 µM [falling, partial curve, poor fit]"

# From PubChem BioAssay AID504444 (National Center for Advancing Translational Sciences (NCATS), 2011)
